# Data: patent publication US20230374087A1, “METHOD TO IMPROVE PROTEIN QUALITY CONTROL” (The Johns Hopkins University, priority 2020, published 2023)
# The chains behind the UniProt entries cited, without tags or fusion partners. Where a name states a change or a piece, a line headed by the entry shows the natural chain unless it says otherwise. Residues count along the entry.
# UniProt P63017, residues 2-646: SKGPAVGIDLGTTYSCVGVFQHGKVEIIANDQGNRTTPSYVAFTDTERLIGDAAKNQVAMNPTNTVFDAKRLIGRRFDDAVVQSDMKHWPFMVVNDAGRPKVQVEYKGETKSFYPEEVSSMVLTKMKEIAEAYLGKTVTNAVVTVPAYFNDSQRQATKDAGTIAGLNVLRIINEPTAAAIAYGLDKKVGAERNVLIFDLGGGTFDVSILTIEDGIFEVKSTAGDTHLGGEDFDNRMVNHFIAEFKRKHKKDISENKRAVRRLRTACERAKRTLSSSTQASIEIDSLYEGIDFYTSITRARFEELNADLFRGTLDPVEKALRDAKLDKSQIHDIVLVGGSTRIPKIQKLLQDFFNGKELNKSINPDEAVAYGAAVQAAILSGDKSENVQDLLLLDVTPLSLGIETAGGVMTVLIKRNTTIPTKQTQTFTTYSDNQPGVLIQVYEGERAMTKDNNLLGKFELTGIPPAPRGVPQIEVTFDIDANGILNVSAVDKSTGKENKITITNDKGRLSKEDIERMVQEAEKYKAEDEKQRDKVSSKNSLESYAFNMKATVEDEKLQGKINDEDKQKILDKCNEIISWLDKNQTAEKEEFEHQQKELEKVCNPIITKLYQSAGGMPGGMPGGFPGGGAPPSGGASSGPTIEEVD
# UniProt Q9WUD1: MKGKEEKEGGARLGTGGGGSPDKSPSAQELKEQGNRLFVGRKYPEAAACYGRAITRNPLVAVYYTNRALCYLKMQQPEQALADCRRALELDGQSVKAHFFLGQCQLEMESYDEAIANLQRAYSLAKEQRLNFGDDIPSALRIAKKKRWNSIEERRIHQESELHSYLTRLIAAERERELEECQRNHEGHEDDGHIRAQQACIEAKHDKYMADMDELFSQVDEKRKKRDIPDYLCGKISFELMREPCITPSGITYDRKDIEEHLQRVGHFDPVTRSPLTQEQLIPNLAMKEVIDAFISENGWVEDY
# Results are given in words; binding and its absence hold for the method and conditions named. Binding seen in cells or lysates may run through a third protein. Some binding calls cover weakened binding; strength is not graded here.
# Experiments:
# [1] = biological target: Hsc70, endogenous in mouse myocardium (mouse) (UniProt P63017); assay: co-immunoprecipitation from mouse myocardium
# [2] = biological target: Hsc70, endogenous in mouse myocardium (mouse) (UniProt P63017); assay: co-immunoprecipitation from mouse myocardium (FIG. 5C)
substance,measurement,setting,value
"mouse CHIP, endogenous in myocardium (from UniProt Q9WUD1 1-304)",binding,[1],binds
same,binding,[2],binds
